PubChem BioAssay AID1259300, Sanger Institute | 2017
Here is an unselected part of 794 reagents tested. 18 of all reagents (2.3%) count as active. 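Calls rest on knock-down alone, not drug synergy; depositor treated synergy scores above 0.15 as synergistic; drug doses alone had little viability effect.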 A number with no mark means an inactive call. No viability above 1 is reported: the scale is capped. The record does not give: the amount of reagent, the time to read-out.

Aim: 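siRNA screen of kinases and common colorectal cancer mutant genes, alone or with drugs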 (primary screen)
Cell system: HCT15 colorectal cancer cells
Reagents: siRNA pool against human genes
Conditions: anchor drug or DMSO vehicle added 24 h after seeding: BYL719 1 µM, cetuximab 5 µg/ml, trametinib 10 nM; drug doses chosen to barely affect viability alone
Measurement: 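Cell viability after knock-down, as fraction of non-targeting pool wells averaged over replicates, plus robust z-score for knock-down alone; synergy score per drug (BYL719 1 µM, cetuximab 5 µg/ml, trametinib 10 nM)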
Reading the numbers: viability z-score, siRNA alone: higher = more viable cells after knock-down; viability vs non-targeting, siRNA alone: higher = more viable cells; synergy score with BYL719 and synergy score with cetuximab and synergy score with trametinib: higher = stronger synergy of knock-down with drug
Rule for the call: 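a knock-down without drug that drives the robust viability z-score under -3 is active, i.e. essential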
Calls: active = essential: knock-down alone lowers viability (z below -3); inactive = no strong viability loss with knock-down alone

| gene | viability z-score, siRNA alone | viability vs non-targeting, siRNA alone | synergy score with BYL719 | synergy score with cetuximab | synergy score with trametinib |
| --- | --- | --- | --- | --- | --- |
| MAPKAPK2 | 0.625 | 1 | 0.261 | 0.103 | -0.0984 |
| STRADB | -2.57 | 0.768 | -0.0654 | -0.174 | -0.26 |
| PIK3C2A | -1.45 | 0.849 | 0.167 | -0.00725 | -0.0487 |
| CDKL4 | 0.625 | 1 | 0.197 | 0.068 | -0.0134 |
| KALRN | 0.625 | 1 | 0.0823 | 0.139 | -0.00923 |
| CDK7 | 0.356 | 0.98 | -0.0622 | -0.0196 | -0.116 |
| ACVR1 | 0.625 | 1 | 0.239 | 0.248 | 0.0757 |
| TSSK1B | 0.537 | 0.994 | 0.0289 | 0.071 | -0.104 |
| PDXK | -0.664 | 0.906 | 0.0219 | 0.0919 | -0.0753 |
| FGFR1 | 0.625 | 1 | 0.216 | 0.044 | -0.0439 |
| DGKQ | -0.209 | 0.939 | 0.125 | 0.223 | 0.0575 |
| CAMK2G | 0.251 | 0.973 | 0.186 | 0.0637 | -0.0128 |
| MAP3K9 | -1.63 | 0.836 | 0.22 | 0.000116 | 0.0604 |
| DGKG | 0.625 | 1 | 0.148 | 0.0964 | 0.0134 |
| NRBP1 | 0.625 | 1 | 0.169 | 0.163 | 0.114 |
| BRSK2 | 0.625 | 1 | 0.11 | 0.0219 | -0.0145 |
| TK2 | -0.117 | 0.946 | -0.000483 | 0.101 | -0.00104 |
| ULK4 | -3.06 (active) | 0.732 | 0.0264 | -0.179 | -0.135 |
| STKLD1 | 0.625 | 1 | 0.377 | 0.122 | 0.109 |
| HK2 | -0.391 | 0.926 | 0.252 | 0.105 | 0.0527 |
| NUAK1 | 0.625 | 1 | 0.263 | 0.0776 | 0.0606 |
| FN3KRP | -0.394 | 0.926 | 0.193 | -0.0407 | -0.165 |
| LMTK2 | 0.625 | 1 | 0.189 | 0.0961 | -0.073 |

Next part; the last 5 above are carried over.
| gene | viability z-score, siRNA alone | viability vs non-targeting, siRNA alone | synergy score with BYL719 | synergy score with cetuximab | synergy score with trametinib |
| --- | --- | --- | --- | --- | --- |
| STKLD1 | 0.625 | 1 | 0.377 | 0.122 | 0.109 |
| HK2 | -0.391 | 0.926 | 0.252 | 0.105 | 0.0527 |
| NUAK1 | 0.625 | 1 | 0.263 | 0.0776 | 0.0606 |
| FN3KRP | -0.394 | 0.926 | 0.193 | -0.0407 | -0.165 |
| LMTK2 | 0.625 | 1 | 0.189 | 0.0961 | -0.073 |
| PLK1 | -5.77 (active) | 0.535 | 0.096 | 0.159 | 0.113 |
| STK3 | 0.321 | 0.978 | 0.162 | 0.0173 | -0.0516 |
| TNK1 | 0.625 | 1 | 0.192 | 0.0973 | -0.00412 |
| PRKAG1 | -0.324 | 0.931 | 0.00641 | 0.12 | -0.0743 |
| MAP2K4 | 0.625 | 1 | 0.204 | 0 | -0.0256 |
| IPPK | -0.00377 | 0.954 | 0.281 | 0.124 | -0.0692 |
| MASTL | 0.625 | 1 | 0.157 | 0.145 | -0.0527 |
| MAP2K1 | -0.226 | 0.938 | -0.0375 | 0.0383 | -0.148 |
| RPS6KA1 | 0.625 | 1 | 0.187 | 0.0677 | 0.0541 |
| CSK | 0.625 | 1 | 0.173 | 0.0414 | -0.0328 |
| TTBK1 | -2.16 | 0.798 | -0.0139 | -0.0526 | -0.231 |
| MAP3K8 | -0.223 | 0.938 | 0.258 | 0.112 | 0.0507 |
| DCLK1 | -0.857 | 0.892 | 0.0664 | -0.0377 | -0.151 |
| PFKP | 0.625 | 1 | 0.0166 | 0.0964 | -0.0984 |
| LCK | -0.144 | 0.944 | 0.258 | -0.0319 | -0.0427 |
| PRKD1 | 0.625 | 1 | 0.229 | 0.14 | 0.0595 |
| EPHB4 | -0.847 | 0.893 | 0.125 | 0.0315 | -0.136 |
| JAK1 | 0.625 | 1 | 0.181 | 0.0509 | -0.0984 |
| NEK8 | -1.95 | 0.813 | 0.213 | -0.00144 | -0.0503 |
| PRKAR2B | -0.88 | 0.891 | 0.292 | 0.0344 | 0.0858 |
| ROR2 | 0.625 | 1 | 0.159 | 0.0134 | -0.0981 |
| EPHA1 | 0.625 | 1 | 0.11 | 0 | -0.0682 |
| PDGFRL | 0.625 | 1 | -0.00187 | 0.106 | -0.0653 |
| PRAG1 | 0.625 | 1 | 0.252 | 0.00645 | -0.0379 |
| TSSK2 | 0.315 | 0.978 | 0.254 | 0.0355 | 0.112 |
| PTEN | -1.54 | 0.843 | -0.0874 | -0.0644 | -0.142 |
| KIT | 0.625 | 1 | 0.142 | 0 | 0.0458 |
